{"sequences": {"note": "By UniProt entry, the sequences of proteins in these tests, tags left out. Residues count along the entry.", "UniProt P01579, 24-161": "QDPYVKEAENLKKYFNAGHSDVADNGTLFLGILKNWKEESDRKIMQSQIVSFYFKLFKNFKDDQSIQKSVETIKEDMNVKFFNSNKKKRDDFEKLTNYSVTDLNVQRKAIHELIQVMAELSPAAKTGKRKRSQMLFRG", "UniProt P02787, 20-698": "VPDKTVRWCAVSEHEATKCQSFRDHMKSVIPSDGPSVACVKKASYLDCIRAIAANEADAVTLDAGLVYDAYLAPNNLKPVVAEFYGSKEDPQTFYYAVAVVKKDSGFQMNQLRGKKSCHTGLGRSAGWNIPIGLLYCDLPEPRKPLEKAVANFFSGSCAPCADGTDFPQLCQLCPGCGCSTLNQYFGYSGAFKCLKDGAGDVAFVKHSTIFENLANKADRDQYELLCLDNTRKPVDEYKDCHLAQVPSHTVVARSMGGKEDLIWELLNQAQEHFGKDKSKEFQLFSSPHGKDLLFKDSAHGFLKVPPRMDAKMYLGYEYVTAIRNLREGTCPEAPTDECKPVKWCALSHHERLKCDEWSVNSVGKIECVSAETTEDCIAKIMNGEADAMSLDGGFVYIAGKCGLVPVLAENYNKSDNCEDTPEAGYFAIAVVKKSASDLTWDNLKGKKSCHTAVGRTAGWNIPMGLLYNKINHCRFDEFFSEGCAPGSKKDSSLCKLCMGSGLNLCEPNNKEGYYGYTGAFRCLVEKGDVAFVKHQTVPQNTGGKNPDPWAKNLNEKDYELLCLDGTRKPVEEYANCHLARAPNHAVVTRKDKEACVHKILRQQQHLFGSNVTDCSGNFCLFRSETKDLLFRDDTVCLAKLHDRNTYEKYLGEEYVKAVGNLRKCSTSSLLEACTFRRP"}, "source": "paper PMC11348067", "key": {"[1]": {"molecular_target": "interferon-gamma (IFN-γ) (UniProt P01579)", "experiment": "RCA inhibition fluorescence assay", "conditions": "10 fg/mL protein, signal comparable to blank, aptamer/padlock annealed in water with 80 mM NaCl (2 uL of 800 mM in 20 uL), then 40 uL protein added, 30 min, pH and binding temperature not stated, ligation 37 C 1 h, commercial protein"}, "[2]": {"molecular_target": "human serum albumin (HSA) (human) (UniProt P02768)", "experiment": "RCA inhibition fluorescence assay", "conditions": "10 fg/mL protein, signal comparable to blank, aptamer/padlock annealed in water with 80 mM NaCl (2 uL of 800 mM in 20 uL), then 40 uL protein added, 30 min, pH and binding temperature not stated, ligation 37 C 1 h, commercial protein"}, "[3]": {"molecular_target": "transferrin (UniProt P02787)", "experiment": "RCA inhibition fluorescence assay", "conditions": "10 fg/mL protein, signal comparable to blank, aptamer/padlock annealed in water with 80 mM NaCl (2 uL of 800 mM in 20 uL), then 40 uL protein added, 30 min, pH and binding temperature not stated, ligation 37 C 1 h, commercial protein"}, "[4]": {"tested_on": "glypican 3 (GPC 3)", "experiment": "RCA inhibition fluorescence assay", "conditions": "10 fg/mL protein, signal comparable to blank, aptamer/padlock annealed in water with 80 mM NaCl (2 uL of 800 mM in 20 uL), then 40 uL protein added, 30 min, pH and binding temperature not stated, ligation 37 C 1 h, commercial protein"}, "[5]": {"molecular_target": "PD-L1 (human) (UniProt Q9NZQ7)", "experiment": "not stated (cited)", "conditions": "aptamer/padlock annealed in water with 80 mM NaCl (2 uL of 800 mM in 20 uL), then 40 uL protein added, 30 min; pH and binding temperature not stated; ligation 37 C 1 h; commercial protein; single-stranded DNA"}, "[6]": {"tested_on": "Mucin 1 (human)", "experiment": "inhibition of RCA by aptamer capture (agarose gel, QD fluorescence)", "conditions": "10 ag/mL-100 fg/mL protein in gel; 5'-phosphate on Padlock-2; aptamer/padlock annealed in water with 80 mM NaCl (2 uL of 800 mM in 20 uL), then 40 uL protein added, 30 min; pH and binding temperature not stated; ligation 37 C 1 h; commercial protein"}}, "note": "For some of these results: A negative result means that nothing was seen under these conditions. For some of these results: At least one verdict rests on a figure or table, not on a statement of the authors. For some of these results: The exact form of at least one protein or probe is not confirmed."}
{"sequence": "ACGGGCCACATCAACTCATTGATAGACAATGCGTCCACTGCCCGT / TGTCTATCAATGATATGGGGGGTCGCATGGGGGGTACAGATGGGGGGTCGCATGGGGGGCCTAACGGGCAGTGGACGCAT [PD-L1 aptamer + Padlock-1 (dsDNA-1)]", "values": [{"measurement": "binding result", "setting": "[1]; 5'-phosphate on Padlock-1", "result": "no binding"}, {"measurement": "binding result", "setting": "[2]; 5'-phosphate on Padlock-1", "result": "no binding"}, {"measurement": "binding result", "setting": "[3]; 5'-phosphate on Padlock-1", "result": "no binding"}, {"measurement": "binding result", "setting": "[4]; 5'-phosphate on Padlock-1", "result": "no binding"}]}
{"sequence": "ACGGGCCACATCAACTCATTGATAGACAATGCGTCCACTGCCCGT [PD-L1 aptamer]", "values": [{"measurement": "Kd", "setting": "[5]", "result": 4.7, "unit": "nM"}]}
{"sequence": "GCAGTTGATCCTTTGGATACCCTGGAGTGA / CCAAAGGATCCTAAAAAAATCGCATAAAAAATACAGCTAAAAAATCGCATAAAAAACCTATCACTCCAGGGTAT [Mucin 1 aptamer + Padlock-2 (dsDNA-2)]", "values": [{"measurement": "binding result", "setting": "[1]; 5'-phosphate on Padlock-2", "result": "no binding"}, {"measurement": "binding result", "setting": "[2]; 5'-phosphate on Padlock-2", "result": "no binding"}, {"measurement": "binding result", "setting": "[3]; 5'-phosphate on Padlock-2", "result": "no binding"}, {"measurement": "binding result", "setting": "[4]; 5'-phosphate on Padlock-2", "result": "no binding"}, {"measurement": "binding result", "setting": "[6]", "result": "binds"}]}
